Assay results as given in the supplement of paper PMC5949888.
Most values lie at the floor of the assay. Slopes are relative: functional sequences can read slightly below zero.

Test system: Saccharomyces cerevisiae PS128 hsf1 delta, HSF1(1-493) fusion
Assay: growth estimate (transactivation domain function in HSF1 fusion, heat-shock survival) (a.u. (slope of normalised read count over time)); higher = stronger growth at 37°C, i.e. more transactivation activity
Conditions: library: random library

Substance	growth estimate
PPVQGKCWNTTLSRTEHQAR	< -0.25
PQAF	< -0.25
PQALTNG	-0.248
PQGVIVFREDL	< -0.25
PQKKRDIASSGFGGS	< -0.25
PQKPTPRAILLSLLPYSTYG	< -0.25
PQLCGINDQKSWVGRTLSND	< -0.25
PQLNSRCRWMGVRTQDPNEN	< -0.25
PQMDGQGSRDEQTVGSAGQH	< -0.25
PQN	< -0.25
PQNGAA	< -0.25
PQNQIVNVWLRWERGYFVGA	< -0.25
PQNVNCANKVGSTGKHYDLP	< -0.25
PQPDLALWSRWQFGNGLGET	< -0.25
PQPRFCPDLKCFCTPCKALR	< -0.25
PQQELTGARILTFRASTPVP	< -0.25
PQREVLLESRHLVPRQNLPR	< -0.25
PQSGNRTC	< -0.25
PQTASWLARKRS	< -0.25
PRAK	< -0.25
PRASKRGGRQLHGARTN	< -0.25
PRAYDVLSSCPWPPAGGSNR	< -0.25
PRECHSCQLAARDTRHRS	< -0.25
PREIKIGLASRL	< -0.25
PREMKGAQEIGDH	< -0.25

Fetched one by one from above:
Substance	growth estimate
PREMKGAQEIGDH	< -0.25
PQKPTPRAILLSLLPYSTYG	< -0.25
PQNGAA	< -0.25

(listing goes on)

Substance	growth estimate
PRG	< -0.25
PRGTA	< -0.25
PRICYRIMKVRGGNASRETQ	< -0.25
PRIER	< -0.25
PRIIHRRIILFEPDALSILA	< -0.25
PRINI	< -0.25
PRIPERNLPFNGLRLVWTRA	< -0.25
PRIRPTQVC	< -0.25
PRKPL	< -0.25
PRLGSSRGSWYRLAVFLVSS	< -0.25
PRLINSMGGDYRIRPLRGRI	< -0.25
PRLITALSMRVGGRPFYVAC	< -0.25
PRLYHVTNNPFPPLSEEWDA	< -0.25
PRNGARLRPNVSRAPLYTRS	< -0.25
PRNRNGECSAGGCIGKYISP	< -0.25
PRPGRRS	< -0.25
PRPGVRSRVTKGLTGWY	< -0.25
PRPTRNRVPRFACGA	< -0.25
PRRAKVDMQHIMNLCCGPTH	< -0.25
PRRKYYFGLVRYRINV	< -0.25
PRRPVLVVLS	< -0.25
PRRSFGENGFLKGWIRVRPI	< -0.25
PRRTRRW	< -0.25
PRSGFERMNTLDKSPGRPET	< -0.25
PRSGPY	< -0.25

Substance	growth estimate
PRSHETSRKIGVPAVAALGQ	< -0.25
PRSIPYNAYWHRAI	< -0.25
PRSLIVHARGGREGHPGVHV	< -0.25
PRSSLLRRTVCVAGSISSAV	< -0.25
PRTDGVSVEEFLGMRYRRGV	< -0.25
PRTGVTRTVIYPGGGGDTTA	< -0.25
PRTINHFPQQVGYEEHSPGL	< -0.25
PRTTHE	< -0.25
PRTVSVNRYPDSIGRMVSDA	< -0.25
PRVARCQRACVPALRNLKVW	< -0.25
PRVVAYAGMGRAPWAVRM	< -0.25
PRWRVSRSWAQEIRGAGMEW	< -0.25
PRYSSTIF	< -0.25
PRYYLRKHRVGNTQHQLHTA	< -0.25
PSAIHWCLIHQELVHPTRPI	< -0.25
PSALSSLWGANPRRSLGVHF	< -0.25
PSARVRQSLERVPSIGSDRF	< -0.25
PSAV	< -0.25
PSCAGPFPGVYNAYSPCCSV	< -0.25
PSCIAVSSTLNRSLRIDGQV	< -0.25
PSCRVMRGKSICVAAHRS	< -0.25
PSDLDVLCVLGSDSPLRQVF	< -0.25
PSETNDRYYISN	< -0.25
PSEVTVPAAGYVARGDLMQH	< -0.25
PSEYVLFRELNSGGNIRARR	< -0.25

Substance	growth estimate
PSFATGTCRCPPSFGRSTWM	< -0.25
PSFDGFVPNGWGSHGCKVRM	< -0.25
PSFGPEQADHAVTGHVPGEV	< -0.25
PSFLLWLKQTTRESRPICSW	< -0.25
PSFNEDQV	< -0.25
PSFRGALPWLSMCNGGHVDG	< -0.25
PSFVRGYTL	< -0.25
PSGDQGVHKDQSRVKGILAH	< -0.25
PSGEGELDPIASRGSMDPGI	< -0.25
PSGVGGDTTVAAGGLNMHSI	< -0.25
PSIVLGE	< -0.25
PSMHLIQRYKCLSTIFADGG	0.021
PSMVPGGVADRQRPYSLLPN	< -0.25
PSPNKSA	< -0.25
PSQGFVQSIMYSPRIVCFPF	< -0.25
PSQIACGKQPIQVA	< -0.25
PSREHQYKSPISNGRGTPER	< -0.25
PSRIQSPAKMLCAKDVRILA	< -0.25
PSRLGSGRQVQSISRDNSSA	-0.243
PSRVF	< -0.25
PSSEADARCLACPGLLAIVT	< -0.25
PSSEGPVSND	< -0.25
PSSGLVRRLDQERVPPC	-0.243
PSSPDTSVLRKGYN	< -0.25
PSTGNIAPALLWLQR	< -0.25

Taken from the entries so far (7 entries):
Substance	growth estimate
PSFDGFVPNGWGSHGCKVRM	< -0.25
PSFGPEQADHAVTGHVPGEV	< -0.25
PSFLLWLKQTTRESRPICSW	< -0.25
PSFNEDQV	< -0.25
PSFRGALPWLSMCNGGHVDG	< -0.25
PSFVRGYTL	< -0.25
PSGDQGVHKDQSRVKGILAH	< -0.25

Next entries

Substance	growth estimate
PSTYVDAKYQSAAETTRPIL	< -0.25
PSVCPMKAVKLV	< -0.25
PSVISR	< -0.25
PSVRLQLRGDGPMVNASRTP	< -0.25
PSVSCTSCLLRDPKSDD	< -0.25
PSVSSSDAGIPRASGSRARN	-0.228
PSVWPRLGQGGTVGIPTSSG	< -0.25
PSWCSQWALVGGFKVVYTR	< -0.25
PSYG	< -0.25
PTAFVLDLLKCSSLTRVP	< -0.25
PTAGWTGSRGHPCLRKEKT	< -0.25
PTANDHQRTGRGPPLYWLHP	< -0.25
PTAVDWRTRSEAPLLRLLTL	< -0.25
PTEFVYCARIYGRRCPKSRL	-0.25
PTFADDP	< -0.25
PTGFWA	-0.175
PTGGARRICNGRKEFRSVAF	< -0.25
PTGRA	< -0.25
PTGRGRRHGTTRKGFSEYTK	< -0.25
PTGSSWPQGGGVMADEPQVA	< -0.25
PTKEPRFLMNQKGKH	< -0.25
PTKIRCNVDSQIRL	< -0.25
PTLADSGHMA	< -0.25
PTLTFMSSWVEHIIDISKSI	< -0.25
PTNRATNHGPVRKRHCRSDL	< -0.25

Substance	growth estimate
PTPDVKSVICLHLRGYTKTR	< -0.25
PTQATHGLLMVTVPYCPASP	< -0.25
PTRTAPSWNIVTGGRSILSP	< -0.25
PTSEWSSYSYVPGMQGW	-0.182
PTSGWTTDG	< -0.25
PTSHPP	< -0.25
PTSLQEGAQ	< -0.25
PTTHWATVVPPA	< -0.25
PTTIRCMACIWIGGI	< -0.25
PTTKIAESFYQIRSHYQMLH	< -0.25
PTVTS	< -0.25
PTWSGYSFVDNQAAGKRSCT	< -0.25
PVAGH	< -0.25
PVAMSRGVWASGPRAYAVYD	< -0.25
PVCPWSPEPICDEHRSTRLV	< -0.25
PVCRPNATVESLTREWSLPS	< -0.25
PVDGRQGKGSEVHVIDGGSP	< -0.25
PVERAIRR	< -0.25
PVFLWSRSATCQLE	< -0.25
PVFNRSLTMRP	< -0.25
PVGELGEWAPGRSARV	< -0.25
PVGEWGTERTAREMDFDHDA	< -0.25
PVGRARSTYPTPDNFSSS	< -0.25
PVHRNRGQGLKKCPKSADCV	< -0.25
PVIRTWPFGPGVKIELV	-0.183

Substance	growth estimate
PVKRCRGVAGAVTGGNHGAQ	< -0.25
PVKTIFYYFVSHKPIMVFQS	< -0.25
PVKTVVLHADK	< -0.25
PVLAPVPHQVVRAQAHGRTA	< -0.25
PVLLAGSEWASNASLATAK	< -0.25
PVLLYIKSLSGRGDNSPRPC	-0.246
PVMCGVSLTVHSRACLRSTT	< -0.25
PVNEQ	< -0.25
PVNHELLSPVSGLLLGEAGR	< -0.25
PVNTSQYGFERVAWGLYSLR	< -0.25
PVNVICGAGSQKSLDIPEGI	-0.245
PVPPLAPLQTIMLENRTNMG	-0.13
PVPWHW	< -0.25
PVQIPTRENKLSAFPSESNS	< -0.25
PVQLQRRPDTTGRPAQTTT	< -0.25
PVQTSWEGF	< -0.25
PVRCGFWLFTFGKVSMAA	< -0.25
PVRIGAGDMGTTSVGHICRY	< -0.25
PVSI	< -0.25
PVSM	-0.208
PVSRTRCRKATPPVTLAVRC	< -0.25
PVSSVETHQVVVWLDG	< -0.25
PVTCDLLAVDVIRTFSNIVR	< -0.25
PVTGWIDLET	< -0.25
PVTLDRG	< -0.25

Substance	growth estimate
PVTRPS	< -0.25
PVVLMNGFVL	< -0.25
PVW	< -0.25
PVWLHESS	< -0.25
PVYSTVTRRATTLPGGTPGA	< -0.25
PWALPD	< -0.25
PWCNEHGEMKVLRKKMIKTL	< -0.25
PWGSG	< -0.25
PWIHQWSHDLISSWLVCSFK	< -0.25
PWLGYRRTVGYLVHGRLCLT	-0.246
PWM	< -0.25
PWMVE	< -0.25
PWNAGKRAMFYDPYLGIHSS	< -0.25
PWNDYAVRQRDHWSAVGVAF	< -0.25
PWNITNGVSLCHSELNGQGP	< -0.25
PWPGVWESTGRPYDVSV	< -0.25
PWQGRTHA	< -0.25
PWRAVTRSSRHQLRRIGETR	< -0.25
PWRTISCLLNIRLALQFQ	-0.145
